Data published in paper PMC4259421.
No constants are given. Whether binding was seen depends on the method and setting. Binding seen in cells or lysates may run through a third protein. Some entries that bind do so weakly or less than the wild type.

Amino acid sequences for entries named in this document (tags omitted).
UniProt P49792: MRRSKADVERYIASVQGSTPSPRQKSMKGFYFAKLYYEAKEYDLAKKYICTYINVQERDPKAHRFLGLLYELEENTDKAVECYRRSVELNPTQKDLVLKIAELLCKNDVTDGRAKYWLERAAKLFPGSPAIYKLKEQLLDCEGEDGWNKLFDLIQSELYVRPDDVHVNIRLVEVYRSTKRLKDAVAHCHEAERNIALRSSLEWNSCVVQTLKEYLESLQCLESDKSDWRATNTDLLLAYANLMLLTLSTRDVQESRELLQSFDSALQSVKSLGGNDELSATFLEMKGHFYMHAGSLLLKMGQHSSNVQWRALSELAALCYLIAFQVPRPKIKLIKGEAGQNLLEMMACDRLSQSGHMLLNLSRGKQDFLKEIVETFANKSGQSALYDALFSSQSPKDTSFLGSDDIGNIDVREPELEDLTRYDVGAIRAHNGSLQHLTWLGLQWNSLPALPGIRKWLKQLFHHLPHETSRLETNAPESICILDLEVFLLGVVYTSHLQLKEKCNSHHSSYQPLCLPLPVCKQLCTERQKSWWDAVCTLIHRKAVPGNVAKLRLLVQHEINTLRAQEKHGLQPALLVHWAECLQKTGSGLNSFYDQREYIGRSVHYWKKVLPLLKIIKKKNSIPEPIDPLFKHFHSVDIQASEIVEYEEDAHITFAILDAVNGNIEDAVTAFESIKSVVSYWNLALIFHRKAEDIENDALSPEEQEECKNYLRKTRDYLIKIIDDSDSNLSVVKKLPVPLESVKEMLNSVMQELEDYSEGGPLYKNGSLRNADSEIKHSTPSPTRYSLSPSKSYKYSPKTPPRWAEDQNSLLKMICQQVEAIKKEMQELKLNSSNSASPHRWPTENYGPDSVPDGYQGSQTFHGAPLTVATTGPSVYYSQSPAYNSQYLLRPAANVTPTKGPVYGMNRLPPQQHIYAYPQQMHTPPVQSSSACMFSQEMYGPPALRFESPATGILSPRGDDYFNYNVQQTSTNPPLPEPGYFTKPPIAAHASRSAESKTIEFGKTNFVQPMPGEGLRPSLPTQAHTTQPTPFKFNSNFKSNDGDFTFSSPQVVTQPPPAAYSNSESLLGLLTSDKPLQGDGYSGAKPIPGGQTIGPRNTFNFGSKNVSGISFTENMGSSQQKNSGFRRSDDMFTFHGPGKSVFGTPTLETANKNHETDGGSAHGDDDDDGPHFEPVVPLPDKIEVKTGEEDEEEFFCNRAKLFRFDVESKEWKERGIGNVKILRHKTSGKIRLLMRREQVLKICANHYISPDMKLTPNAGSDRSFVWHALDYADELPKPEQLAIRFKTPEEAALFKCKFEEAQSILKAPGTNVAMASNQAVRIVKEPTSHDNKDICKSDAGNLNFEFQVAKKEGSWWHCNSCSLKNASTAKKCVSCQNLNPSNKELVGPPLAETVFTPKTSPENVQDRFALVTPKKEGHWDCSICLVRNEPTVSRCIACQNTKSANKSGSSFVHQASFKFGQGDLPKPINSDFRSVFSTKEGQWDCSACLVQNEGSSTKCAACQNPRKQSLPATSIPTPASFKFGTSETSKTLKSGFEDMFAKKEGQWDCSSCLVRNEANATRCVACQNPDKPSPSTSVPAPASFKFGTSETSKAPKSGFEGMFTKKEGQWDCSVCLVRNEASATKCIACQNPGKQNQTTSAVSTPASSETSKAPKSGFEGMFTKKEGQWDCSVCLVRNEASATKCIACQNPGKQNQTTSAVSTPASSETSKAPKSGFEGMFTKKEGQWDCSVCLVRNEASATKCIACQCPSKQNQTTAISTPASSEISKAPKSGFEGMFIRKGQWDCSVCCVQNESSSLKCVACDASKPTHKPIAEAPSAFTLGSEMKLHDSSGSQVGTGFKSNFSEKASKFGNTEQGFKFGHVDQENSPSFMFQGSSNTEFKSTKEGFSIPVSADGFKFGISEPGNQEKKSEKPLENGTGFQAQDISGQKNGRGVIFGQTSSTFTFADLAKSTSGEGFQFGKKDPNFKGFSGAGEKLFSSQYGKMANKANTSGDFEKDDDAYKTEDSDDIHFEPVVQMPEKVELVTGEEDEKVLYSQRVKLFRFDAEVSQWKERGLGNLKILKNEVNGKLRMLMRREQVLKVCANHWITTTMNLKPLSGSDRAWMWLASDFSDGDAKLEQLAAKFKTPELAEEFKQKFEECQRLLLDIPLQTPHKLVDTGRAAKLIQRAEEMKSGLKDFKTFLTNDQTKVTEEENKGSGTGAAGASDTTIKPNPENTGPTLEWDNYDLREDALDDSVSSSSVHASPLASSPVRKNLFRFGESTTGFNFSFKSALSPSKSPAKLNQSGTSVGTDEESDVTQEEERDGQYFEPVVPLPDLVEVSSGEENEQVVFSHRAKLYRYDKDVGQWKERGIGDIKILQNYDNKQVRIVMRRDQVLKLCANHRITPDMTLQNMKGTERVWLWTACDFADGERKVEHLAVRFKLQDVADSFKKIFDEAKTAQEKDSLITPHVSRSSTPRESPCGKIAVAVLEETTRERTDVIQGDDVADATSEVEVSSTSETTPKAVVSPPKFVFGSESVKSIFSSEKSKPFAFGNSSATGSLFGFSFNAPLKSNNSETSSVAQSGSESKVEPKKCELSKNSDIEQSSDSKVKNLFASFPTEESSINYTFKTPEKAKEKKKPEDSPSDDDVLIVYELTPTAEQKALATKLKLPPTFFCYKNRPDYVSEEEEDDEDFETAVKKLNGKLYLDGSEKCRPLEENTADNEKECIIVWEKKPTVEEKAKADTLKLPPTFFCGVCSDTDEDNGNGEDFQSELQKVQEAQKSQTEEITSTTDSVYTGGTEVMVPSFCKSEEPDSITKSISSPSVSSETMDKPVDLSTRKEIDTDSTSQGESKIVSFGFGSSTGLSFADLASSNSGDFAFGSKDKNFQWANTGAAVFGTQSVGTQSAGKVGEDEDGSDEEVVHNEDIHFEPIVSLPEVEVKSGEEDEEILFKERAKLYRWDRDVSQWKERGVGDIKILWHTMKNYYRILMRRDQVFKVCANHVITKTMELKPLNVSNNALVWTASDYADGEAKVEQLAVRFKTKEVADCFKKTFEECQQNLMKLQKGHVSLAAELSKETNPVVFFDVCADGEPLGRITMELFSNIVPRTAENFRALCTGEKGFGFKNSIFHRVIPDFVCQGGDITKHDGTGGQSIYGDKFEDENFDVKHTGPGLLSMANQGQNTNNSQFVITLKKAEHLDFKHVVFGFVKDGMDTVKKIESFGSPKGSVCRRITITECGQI
UniProt Q8N122: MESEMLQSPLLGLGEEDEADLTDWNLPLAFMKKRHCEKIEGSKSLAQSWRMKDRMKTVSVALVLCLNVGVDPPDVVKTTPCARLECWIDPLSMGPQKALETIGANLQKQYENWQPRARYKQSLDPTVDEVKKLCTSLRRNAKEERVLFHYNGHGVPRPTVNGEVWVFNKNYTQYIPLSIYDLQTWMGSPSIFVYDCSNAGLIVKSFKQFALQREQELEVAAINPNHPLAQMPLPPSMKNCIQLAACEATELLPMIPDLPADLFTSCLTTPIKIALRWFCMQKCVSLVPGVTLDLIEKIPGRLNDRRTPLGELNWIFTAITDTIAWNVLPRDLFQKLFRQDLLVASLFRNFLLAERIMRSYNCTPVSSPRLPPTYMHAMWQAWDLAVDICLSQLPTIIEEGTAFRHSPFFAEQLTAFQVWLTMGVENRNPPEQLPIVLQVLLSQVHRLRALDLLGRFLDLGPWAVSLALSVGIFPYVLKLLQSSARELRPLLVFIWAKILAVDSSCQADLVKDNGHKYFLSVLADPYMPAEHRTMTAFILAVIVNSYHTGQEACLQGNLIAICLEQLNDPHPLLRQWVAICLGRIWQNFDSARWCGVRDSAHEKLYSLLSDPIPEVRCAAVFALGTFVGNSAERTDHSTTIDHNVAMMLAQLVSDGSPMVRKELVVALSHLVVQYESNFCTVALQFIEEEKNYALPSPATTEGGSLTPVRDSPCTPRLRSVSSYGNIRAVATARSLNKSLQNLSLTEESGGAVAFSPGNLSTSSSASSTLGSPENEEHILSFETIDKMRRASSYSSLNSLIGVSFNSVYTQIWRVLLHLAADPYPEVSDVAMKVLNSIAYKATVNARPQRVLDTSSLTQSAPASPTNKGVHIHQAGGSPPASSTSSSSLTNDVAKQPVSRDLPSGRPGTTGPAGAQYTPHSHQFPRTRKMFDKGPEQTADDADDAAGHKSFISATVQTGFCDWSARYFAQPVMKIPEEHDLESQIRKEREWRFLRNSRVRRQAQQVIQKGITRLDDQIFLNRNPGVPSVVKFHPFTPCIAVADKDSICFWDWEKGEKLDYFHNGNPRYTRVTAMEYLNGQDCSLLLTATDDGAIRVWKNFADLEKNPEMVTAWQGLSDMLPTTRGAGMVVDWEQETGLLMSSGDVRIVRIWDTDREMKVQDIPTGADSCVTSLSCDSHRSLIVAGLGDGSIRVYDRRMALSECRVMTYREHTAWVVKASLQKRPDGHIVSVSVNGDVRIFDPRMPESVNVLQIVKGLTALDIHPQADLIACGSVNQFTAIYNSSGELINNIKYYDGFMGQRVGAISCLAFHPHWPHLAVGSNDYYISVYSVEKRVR
UniProt Q14974: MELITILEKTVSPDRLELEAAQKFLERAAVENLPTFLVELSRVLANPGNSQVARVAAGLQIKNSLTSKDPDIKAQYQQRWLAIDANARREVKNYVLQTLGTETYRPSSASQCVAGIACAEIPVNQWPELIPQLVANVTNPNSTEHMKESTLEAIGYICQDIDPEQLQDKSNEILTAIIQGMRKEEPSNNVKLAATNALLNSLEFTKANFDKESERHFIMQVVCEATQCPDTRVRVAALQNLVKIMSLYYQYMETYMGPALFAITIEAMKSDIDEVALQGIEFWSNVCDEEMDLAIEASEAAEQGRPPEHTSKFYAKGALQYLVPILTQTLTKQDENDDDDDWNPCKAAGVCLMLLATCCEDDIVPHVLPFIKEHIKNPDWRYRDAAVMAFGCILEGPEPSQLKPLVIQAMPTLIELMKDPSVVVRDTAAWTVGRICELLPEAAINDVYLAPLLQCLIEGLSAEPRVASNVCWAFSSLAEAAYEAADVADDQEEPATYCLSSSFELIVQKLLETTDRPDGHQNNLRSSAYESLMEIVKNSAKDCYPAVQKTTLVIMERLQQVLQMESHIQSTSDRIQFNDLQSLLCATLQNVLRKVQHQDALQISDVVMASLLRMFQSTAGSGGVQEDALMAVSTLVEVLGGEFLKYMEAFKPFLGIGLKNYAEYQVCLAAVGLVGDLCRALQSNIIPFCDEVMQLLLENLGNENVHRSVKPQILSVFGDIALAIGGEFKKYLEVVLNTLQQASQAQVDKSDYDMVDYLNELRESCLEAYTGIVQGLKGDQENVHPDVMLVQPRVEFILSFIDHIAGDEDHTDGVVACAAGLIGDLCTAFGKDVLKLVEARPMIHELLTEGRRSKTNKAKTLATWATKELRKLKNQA

Molecular target: Ran Binding Protein 2 (RanBP2, also known as Nup358) (human (endogenous in MDA-MB-435, MDA-MB-231, HeLa, HEK 293T)) (UniProt P49792)
Assay: co-IP; RanBP2 immunoprecipitates from total cellular lysates of actively growing HEK 293T cells lysed in buffer E; immunoblot

binding	Substance
no binding	raptor (from UniProt Q8N122 1-1335)
binds	importin β1 (from UniProt Q14974 1-876)
